PubChem BioAssay AID504791 – Drosophila RNAi Screening Center | 2011

- Purpose: 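Genes of the fly required for silencing by miRNA, siRNA or endo-siRNA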 (primary screen)
- System: Drosophila S2-derived reporter cells
- Knock-down reagent: long dsRNA against Drosophila genes, about 150-250 ng dsRNA per well (siRNA assay); about 80-120 ng (miRNA assay)
- Timing: about 5 days (siRNA assay); about 4 days (miRNA assay)
- Challenge: copper sulfate induction of reporters: 25 µM (siRNA assay); 200 mM stated (miRNA assay), 1-2 days before reading
- Measured: 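Per-well ratio of Renilla over firefly light, expressed relative to that plate's average ratio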
- Units: stable assay Renilla, run 1 in luminescence; stable assay firefly, run 1 in luminescence
- Hit rule: 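First-pass picks had plate-scaled ratios over 1.5 for the siRNA assay, over 1.6 for the miRNA assay, or under 0.6; two distinct dsRNAs had to score alike on retest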
In all, the deposit lists about 23,000 reagents; shown is a random part of those that have a named target and a result. Of all reagents, 199 (0.86%) were called active. 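Plate-scaled ratios behind the calls are not deposited; printed light signals are raw; many rows marked increased or decreased are still called inactive.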 The record does not give: the direction of the score.

Obp85a (Odorant-binding protein 85a) [DRSC14362] — stable assay Renilla, run 1 = 6871; stable assay firefly, run 1 = 3.62e5; Outcome = inactive
CG33225 [DRSC03881] — stable assay Renilla, run 1 = 5460; stable assay firefly, run 1 = 3.69e5; Outcome = inactive
CG8321 [DRSC07148] — stable assay Renilla, run 1 = 8575; stable assay firefly, run 1 = 3.42e5; Outcome = inactive
htt (huntingtin) [DRSC16970] — stable assay Renilla, run 1 = 6880; stable assay firefly, run 1 = 3.54e5; Outcome = inactive
Ir48a (Ionotropic receptor 48a) [DRSC05301] — stable assay Renilla, run 1 = 5519; stable assay firefly, run 1 = 3.51e5; Outcome = inactive
Obp18a (Odorant-binding protein 18a) [DRSC19736] — stable assay Renilla, run 1 = 5671; stable assay firefly, run 1 = 3.66e5; Outcome = inactive
E(spl)mdelta-HLH (Enhancer of split mdelta, helix-loop-helix) [DRSC16698] — stable assay Renilla, run 1 = 6187; stable assay firefly, run 1 = 3.32e5; Outcome = inactive

The list goes on (2 carried over from the part before).
Obp18a (Odorant-binding protein 18a) [DRSC19736] — stable assay Renilla, run 1 = 5671; stable assay firefly, run 1 = 3.66e5; Outcome = inactive
E(spl)mdelta-HLH (Enhancer of split mdelta, helix-loop-helix) [DRSC16698] — stable assay Renilla, run 1 = 6187; stable assay firefly, run 1 = 3.32e5; Outcome = inactive
Mur11Da (Mucin related 11Da) [DRSC18960] — stable assay Renilla, run 1 = 4806; stable assay firefly, run 1 = 3.82e5; Outcome = inactive
Tbce (Tubulin-binding cofactor E) [DRSC04897] — stable assay Renilla, run 1 = 11121; stable assay firefly, run 1 = 1.50e6; Outcome = inactive
Cpr65Az (Cuticular protein 65Az) [DRSC09882] — stable assay Renilla, run 1 = 8024; stable assay firefly, run 1 = 6.31e5; Outcome = inactive
Cpr65Az (Cuticular protein 65Az) [DRSC22057] — stable assay Renilla, run 1 = 9250; stable assay firefly, run 1 = 5.62e5; Outcome = inactive
CG13130 (retired record) [DRSC02226] — miRNA reporter change = reporter ratio raised past the hit cutoff; stable assay Renilla, run 1 = 9354; stable assay firefly, run 1 = 4.30e5; Outcome = inactive
gas (gasoline) [DRSC04521] — stable assay Renilla, run 1 = 6631; stable assay firefly, run 1 = 3.84e5; Outcome = inactive
Galphas (G protein alpha subunit s) [DRSC04616] — stable assay Renilla, run 1 = 26994; stable assay firefly, run 1 = 1.26e6; Outcome = inactive
CG11583 [DRSC08202] — stable assay Renilla, run 1 = 7592; stable assay firefly, run 1 = 3.45e5; Outcome = inactive
Ppa (Partner of paired) [DRSC04598] — stable assay Renilla, run 1 = 5343; stable assay firefly, run 1 = 3.94e5; Outcome = inactive
CG9068 [DRSC07329] — stable assay Renilla, run 1 = 6555; stable assay firefly, run 1 = 3.46e5; Outcome = inactive
CG5556 [DRSC00687] — stable assay Renilla, run 1 = 4698; stable assay firefly, run 1 = 4.19e5; Outcome = inactive
CG3769 [DRSC02723] — stable assay Renilla, run 1 = 7602; stable assay firefly, run 1 = 2.96e5; Outcome = inactive
